{"source": "paper PMC12431657", "about": "“Discovery and mechanistic insights of dibenzoylmethane as a broad spectrum inhibitor of coronavirus” (PLOS Pathogens, 2025)", "system": "HCoV-OC43", "design": "species or system RD; HTS, protection from HCoV-OC43 induced cell death, luminescent cell viability (CellCounting-Lite 2.0), inhibition rate", "conditions": "24 h post infection, 1 h compound pre-incubation, 10 µM, inhibitor", "note": "Where a name gives a salt, the structure may show the parent alone. Read-outs that look alike come from different tables or passages of the source. Hit rate of the full screen: of about 3,300 compounds, about 60 (2%) showed an effect of 50% or more. The list shows a part of the results."}
{"smiles": "CC(=O)O[C@H]1CC(=O)OC(C)(C)[C@@H]2CC(=O)[C@]3(C)[C@H](CC[C@@]4(C)[C@H](c5ccoc5)OC(=O)[C@H]5O[C@]543)[C@@]12C", "note": "[Nomilin]", "values": [{"measurement": "OC43 Inhibition rate", "value": 0.1, "unit": "%"}]}
{"smiles": "O=C1O[C@H]([C@H](O)CO)C(O)=C1O", "note": "[Sodium erythorbate]", "values": [{"measurement": "OC43 Inhibition rate", "setting": "OC43 Inhibition rate, 24 h", "value": -0.7, "unit": "%"}]}
{"smiles": "C=CC1=C(C)c2cc3[nH]c(cc4nc(cc5[nH]c(cc1n2)c(C)c5CCC(=O)O)C(CCC(=O)O)=C4C)c(C)c3C=C", "note": "[Protoporphyrin IX]", "values": [{"measurement": "OC43 Inhibition rate", "value": 0.4, "unit": "%"}]}
{"smiles": "CCc1c2c(nc3ccccc13)-c1cc3c(c(=O)n1C2)COC(=O)[C@]3(O)CC", "note": "[7-Ethylcamptothecin]", "values": [{"measurement": "OC43 Inhibition rate", "value": -1.9, "unit": "%"}]}
{"smiles": "CC[C@@H](N)C(=O)O", "note": "[D(-)-2-Aminobutyric acid]", "values": [{"measurement": "OC43 Inhibition rate", "value": 6.5, "unit": "%"}]}
{"smiles": "C=C1C[C@@]23CC[C@H]4[C@@](C)(CCC[C@@]4(C)C(=O)O)[C@@H]2CC[C@]1(O)C3", "note": "[Steviol]", "values": [{"measurement": "OC43 Inhibition rate", "value": 0, "unit": "%"}]}
{"smiles": "Oc1ccc(OC2CCCCO2)cc1", "note": "(centres unmarked) [Deoxyarbutin]", "values": [{"measurement": "OC43 Inhibition rate", "value": 0.7, "unit": "%"}]}
{"smiles": "CNCc1ccccc1", "note": "[N-Methylbenzylamine]", "values": [{"measurement": "OC43 Inhibition rate", "value": 0, "unit": "%"}]}
{"smiles": "C=C(C)[C@H](CC=C(C)C)Cc1c(O)cc(O)c2c1O[C@H](c1ccc(O)cc1O)CC2=O", "note": "[sophoraflavanone G]", "values": [{"measurement": "OC43 Inhibition rate", "value": 39.8, "unit": "%"}]}
{"smiles": "COc1cc(OC)cc(OC)c1", "note": "[1,3,5-Trimethoxybenzene]", "values": [{"measurement": "OC43 Inhibition rate", "value": -0.5, "unit": "%"}]}
{"smiles": "O=c1ccc2cc(O)c(O[C@@H]3O[C@H](CO)[C@@H](O)[C@H](O)[C@H]3O)cc2o1", "note": "[Cichoriin]", "values": [{"measurement": "OC43 Inhibition rate", "value": -0.2, "unit": "%"}]}
{"smiles": "COc1ccc(-c2oc3c(CC=C(C)C)c(O)cc(O)c3c(=O)c2O[C@@H]2O[C@@H](C)[C@H](O)[C@@H](O)[C@H]2O[C@@H]2O[C@@H](C)[C@H](O)[C@@H](O)[C@H]2O)cc1", "note": "[2''-O-Rhamnosylicariside II]", "values": [{"measurement": "OC43 Inhibition rate", "value": 0.3, "unit": "%"}]}
{"smiles": "CC(=O)c1c(C)c([N+](=O)[O-])c(C(C)(C)C)c([N+](=O)[O-])c1C", "note": "[Musk ketone]", "values": [{"measurement": "OC43 Inhibition rate", "value": 5.5, "unit": "%"}]}
{"smiles": "CC(C)c1ccc2c(c1)CC[C@H]1[C@](C)(C(=O)O)CCC[C@]21C", "note": "[Dehydroabietic acid]", "values": [{"measurement": "OC43 Inhibition rate", "value": -0.5, "unit": "%"}]}
{"smiles": "O=C1Nc2ccccc2/C1=C1/Nc2ccccc2C1=O", "note": "[Indirubin]", "values": [{"measurement": "OC43 Inhibition rate", "value": -0.1, "unit": "%"}]}
{"smiles": "CC(C)(O)[C@@H]1Cc2c(cc3oc(CO)cc(=O)c3c2O)O1", "note": "[Angelicain]", "values": [{"measurement": "OC43 Inhibition rate", "value": -0.3, "unit": "%"}]}
{"smiles": "CC(C)=CCC[C@]1(C)C=Cc2c(O)c3c(c(CC=C(C)C)c2O1)O[C@]12C(=C[C@@H]4C[C@H]1C(C)(C)O[C@@]2(C/C=C(/C)C(=O)O)C4=O)C3=O", "note": "[Gambogic Acid]", "values": [{"measurement": "OC43 Inhibition rate", "value": -4.4, "unit": "%"}]}
{"smiles": "CC(=O)OCC1=C[C@H](O)[C@@H]2C(C(=O)O)=CO[C@@H](O[C@@H]3O[C@H](CO)[C@@H](O)[C@H](O)[C@H]3O)[C@H]12", "note": "[Asperulosidic Acid]", "values": [{"measurement": "OC43 Inhibition rate", "value": 0.4, "unit": "%"}]}
{"smiles": "N[C@@H](Cc1cc(I)c(Oc2cc(I)c(O)c(I)c2)c(I)c1)C(=O)O", "note": "[L-Thyroxine]", "values": [{"measurement": "OC43 Inhibition rate", "value": 1, "unit": "%"}]}
{"smiles": "Cc1cc(=O)oc2cc(O)c(O)cc12", "note": "[4-Methylesculetin]", "values": [{"measurement": "OC43 Inhibition rate", "value": -0.2, "unit": "%"}]}
{"smiles": "CSC(=O)OCC1=C[C@@H]2OC(=O)C3=CO[C@@H](O[C@@H]4O[C@H](CO)[C@@H](O)[C@H](O)[C@H]4O)[C@H]1[C@@H]32", "note": "[Paederoside]", "values": [{"measurement": "OC43 Inhibition rate", "value": -0.4, "unit": "%"}]}
{"smiles": "O=C(O)C(O)Cc1ccc(O)c(O)c1", "note": "(centres unmarked) [Danshensu (sodium salt)]", "values": [{"measurement": "OC43 Inhibition rate", "value": -1.1, "unit": "%"}]}
{"smiles": "O=C[C@H](O)[C@@H](O)[C@H](O)CO", "note": "[Xylose]", "values": [{"measurement": "OC43 Inhibition rate", "setting": "OC43 Inhibition rate, 24 h", "value": 1.2, "unit": "%"}]}
{"smiles": "CC1=CC(=O)C(C(C)C)=CC1=O", "note": "[Thymoquinone]", "values": [{"measurement": "OC43 Inhibition rate", "value": 2.8, "unit": "%"}]}
{"smiles": "CCCCCC/C=C\\CCCCCCCC(=O)O", "note": "[Palmitoleic acid]", "values": [{"measurement": "OC43 Inhibition rate", "value": 0.2, "unit": "%"}]}
{"smiles": "O=C1/C(=C/c2ccc(O)c(O)c2)COc2cc(O)ccc21", "note": "[Sappanone A]", "values": [{"measurement": "OC43 Inhibition rate", "value": 25.2, "unit": "%"}]}
{"smiles": "CCC(C)(C)C(=O)O[C@H]1C[C@@H](C)C=C2C=C[C@H](C)[C@H](CC[C@@H](O)C[C@@H](O)CC(=O)O)[C@H]21", "note": "[Simvastatin acid (ammonium)]", "values": [{"measurement": "OC43 Inhibition rate", "value": 5, "unit": "%"}]}
{"smiles": "N[C@H]1[C@H](O[C@H]2[C@H](O)[C@@H](N)[C@H](O[C@H]3[C@H](O)[C@@H](N)[C@H](O[C@@H]([C@H](O)[C@@H](N)C=O)[C@H](O)CO)O[C@@H]3CO)O[C@@H]2CO)O[C@H](CO)[C@@H](O)[C@@H]1O", "note": "[Chitotetraose (tetrahydrochloride)]", "values": [{"measurement": "OC43 Inhibition rate", "value": -0.2, "unit": "%"}]}
{"smiles": "O=C(O)CC(O)(CC(=O)O)C(=O)O", "note": "[Citric acid]", "values": [{"measurement": "OC43 Inhibition rate", "setting": "OC43 Inhibition rate, 24 h", "value": -0.4, "unit": "%"}]}
{"smiles": "O=Cc1ccccc1O[C@@H]1O[C@H](CO)[C@@H](O)[C@H](O)[C@H]1O", "note": "[Helicin]", "values": [{"measurement": "OC43 Inhibition rate", "value": 7.3, "unit": "%"}]}
{"smiles": "CCCCCCC/C=C\\C(=O)O", "note": "[(Z)-2-Decenoic acid]", "values": [{"measurement": "OC43 Inhibition rate", "value": 29.5, "unit": "%"}]}
{"smiles": "CC1(C)[C@@H](O[C@H]2O[C@H](C(=O)O)[C@@H](O)[C@H](O)[C@H]2O[C@@H]2O[C@H](C(=O)O)[C@@H](O)[C@H](O)[C@H]2O)CC[C@]2(C)[C@H]3C(=O)C=C4[C@@H]5C[C@@](C)(C(=O)O)CC[C@]5(C)CC[C@@]4(C)[C@]3(C)CC[C@@H]12", "note": "[Glycyrrhizic acid]", "values": [{"measurement": "OC43 Inhibition rate", "setting": "OC43 Inhibition rate, 24 h", "value": -0.1, "unit": "%"}]}
{"smiles": "CC1=CC(=O)CC(C)(C)C1(O)/C=C/C(C)=C\\C(=O)O", "note": "(racemic) [(±)-Abscisic acid]", "values": [{"measurement": "OC43 Inhibition rate", "setting": "OC43 Inhibition rate, 24 h", "value": -0.8, "unit": "%"}]}
{"smiles": "CC(=O)O[C@H]1C(=O)[C@@]2(C)[C@H]([C@H](OC(=O)c3ccccc3)[C@]3(O)C[C@H](OC(=O)[C@H](O)[C@@H](NC(=O)c4ccccc4)c4ccccc4)C(C)=C1C3(C)C)[C@]1(OC(C)=O)CO[C@@H]1C[C@@H]2O", "note": "[Paclitaxel]", "values": [{"measurement": "OC43 Inhibition rate", "setting": "OC43 Inhibition rate, 24 h", "value": 32.2, "unit": "%"}]}
{"smiles": "O=C(O)Cc1c[nH]c2ccccc12", "note": "[3-Indoleacetic acid]", "values": [{"measurement": "OC43 Inhibition rate", "value": -0.9, "unit": "%"}]}
{"smiles": "C[C@@H]1O[C@@H](OC[C@H]2O[C@@H](OCCc3ccc(O)c(O)c3)[C@H](O)[C@@H](O[C@@H]3O[C@@H](C)[C@H](O)[C@@H](O)[C@H]3O)[C@@H]2OC(=O)/C=C/c2ccc(O)c(O)c2)[C@H](O)[C@H](O)[C@H]1O", "note": "[Poliumoside]", "values": [{"measurement": "OC43 Inhibition rate", "value": -0.3, "unit": "%"}]}
{"smiles": "CC(C(=O)O)c1ccccc1", "note": "(centres unmarked) [2-Phenylpropionic acid]", "values": [{"measurement": "OC43 Inhibition rate", "value": -0.3, "unit": "%"}]}
{"smiles": "N[C@@H](CO)C(=O)O", "note": "[L-Serine]", "values": [{"measurement": "OC43 Inhibition rate", "value": 0.9, "unit": "%"}]}
